Laboratory results reported in patent US20250283871A1, “COMPOSITIONS AND METHODS FOR MODULATING THE INTERACTION BETWEEN SS18-SSX FUSION ONCOPROTEIN AND NUCLEOSOMES” (Dana-Farber Cancer Institute, Inc., priority 2020, published 2025).

B1: TMEM43 (protein, UniProt Q9BTV4 2-400, looked up)
Transmembrane protein 43: AANYSSTSTRREHVKVKTSSQPGFLERLSETSGGMFVGLMAFLLSFYLIFTNEGRALKTATSLAEGLSLVVSPDSIHSVAPENEGRLVHIIGALRTSKLLSDPNYGVHLPAVKLRRHVEMYQWVETEESREYTEDGQVKKETRYSYNTEWRSEIINSKNFDREIGHKNPSAMAVESFMATAPFVQIGRFFLSSGLIDKVDNFKSLSLSKLEDPHVDIIRRGDFFYHSENPKYPEVGDLRVSFSYAGLSGDDPDLGPAHVVTVIARQRGDQLVPFSTKSGDTLLLLHHGDFSAEEVFHRELRSNSMKTWGLRAAGWMAMFMGLNLMTRILYTLVDWFPVFRDLVNIGLKAFAFCVATSLTLLTVAAGWLFYRPLWALLIAGLALVPILVARTRVPAKKLE
B2: SFXN1 (protein, UniProt Q9H9B4 2-322, looked up)
Sideroflexin-1: SGELPPNINIKEPRWDQSTFIGRANHFFTVTDPRNILLTNEQLESARKIVHDYRQGIVPPGLTENELWRAKYIYDSAFHPDTGEKMILIGRMSAQVPMNMTITGCMMTFYRTTPAVLFWQWINQSFNAVVNYTNRSGDAPLTVNELGTAYVSATTGAVATALGLNALTKHVSPLIGRFVPFAAVAAANCINIPLMRQRELKVGIPVTDENGNRLGESANAAKQAITQVVVSRILMAAPGMAIPPFIMNTLEKKAFLKRFPWMSAPIQVGLVGFCLVFATPLCCALFPQKSSMSVTSLEAELQAKIQESHPELRRVYFNKGL
B3: SRSF4 (protein, UniProt Q08170 1-494, looked up)
Serine/arginine-rich splicing …: MPRVYIGRLSYQARERDVERFFKGYGKILEVDLKNGYGFVEFDDLRDADDAVYELNGKDLCGERVIVEHARGPRRDGSYGSGRSGYGYRRSGRDKYGPPTRTEYRLIVENLSSRCSWQDLKDYMRQAGEVTYADAHKGRKNEGVIEFVSYSDMKRALEKLDGTEVNGRKIRLVEDKPGSRRRRSYSRSRSHSRSRSRSRHSRKSRSRSGSSKSSHSKSRSRSRSGSRSRSKSRSRSQSRSRSKKEKSRSPSKEKSRSRSHSAGKSRSKSKDQAEEKIQNNDNVGKPKSRSPSRHKSKSKSRSRSQERRVEEEKRGSVSRGRSQEKSLRQSRSRSRSKGGSRSRSRSRSKSKDKRKGRKRSREESRSRSRSRSKSERSRKRGSKRDSKAGSSKKKKKEDTDRSQSRSPSRSVSKEREHAKSESSQREGRGESENAGTNQETRSRSRSNSKSKPNLPSESRSRSKSASKTRSRSKSRSRSASRSPSRSRSRSHSRS
B4: MAU2 (protein, UniProt Q9Y6X3 1-613, looked up)
MAU2 chromatid cohesion …: MAAQAAAAAQAAAAQAAQAEAADSWYLALLGFAEHFRTSSPPKIRLCVHCLQAVFPFKPPQRIEARTHLQLGSVLYHHTKNSEQARSHLEKAWLISQQIPQFEDVKFEAASLLSELYCQENSVDAAKPLLRKAIQISQQTPYWHCRLLFQLAQLHTLEKDLVSACDLLGVGAEYARVVGSEYTRALFLLSKGMLLLMERKLQEVHPLLTLCGQIVENWQGNPIQKESLRVFFLVLQVTHYLDAGQVKSVKPCLKQLQQCIQTISTLHDDEILPSNPADLFHWLPKEHMCVLVYLVTVMHSMQAGYLEKAQKYTDKALMQLEKLKMLDCSPILSSFQVILLEHIIMCRLVTGHKATALQEISQVCQLCQQSPRLFSNHAAQLHTLLGLYCVSVNCMDNAEAQFTTALRLTNHQELWAFIVTNLASVYIREGNRHQEVLYSLLERINPDHSFPVSSHCLRAAAFYVRGLFSFFQGRYNEAKRFLRETLKMSNAEDLNRLTACSLVLLGHIFYVLGNHRESNNMVVPAMQLASKIPDMSVQLWSSALLRDLNKACGNAMDAHEAAQMHQNFSQQLLQDHIEACSLPEHNLITWTDGPPPVQFQAQNGPNTSLASLL
B5: MTA2 (protein, UniProt O94776 1-668, looked up)
Metastasis-associated protein …: MAANMYRVGDYVYFENSSSNPYLVRRIEELNKTANGNVEAKVVCLFRRRDISSSLNSLADSNAREFEEESKQPGVSEQQRHQLKHRELFLSRQFESLPATHIRGKCSVTLLNETDILSQYLEKEDCFFYSLVFDPVQKTLLADQGEIRVGCKYQAEIPDRLVEGESDNRNQQKMEMKVWDPDNPLTDRQIDQFLVVARAVGTFARALDCSSSIRQPSLHMSAAAASRDITLFHAMDTLQRNGYDLAKAMSTLVPQGGPVLCRDEMEEWSASEAMLFEEALEKYGKDFNDIRQDFLPWKSLASIVQFYYMWKTTDRYIQQKRLKAAEADSKLKQVYIPTYTKPNPNQIISVGSKPGMNGAGFQKGLTCESCHTTQSAQWYAWGPPNMQCRLCASCWIYWKKYGGLKTPTQLEGATRGTTEPHSRGHLSRPEAQSLSPYTTSANRAKLLAKNRQTFLLQTTKLTRLARRMCRDLLQPRRAARRPYAPINANAIKAECSIRLPKAAKTPLKIHPLVRLPLATIVKDLVAQAPLKPKTPRGTKTPINRNQLSQNRGLGGIMVKRAYETMAGAGVPFSANGRPLASGIRSSSQPAAKRQKLNPADAPNPVVFVATKDTRALRKALTHLEMRRAARRPNLPLKVKPTLIAVRPPVPLPAPSHPASTNEPIVLED
B6: DHX30 (protein, UniProt Q7L2E3 1-1194, looked up)
ATP-dependent RNA helicase …: MFSLDSFRKDRAQHRQRQCKLPPPRLPPMCVNPTPGGTISRASRDLLKEFPQPKNLLNSVIGRALGISHAKDKLVYVHTNGPKKKKVTLHIKWPKSVEVEGYGSKKIDAERQAAAAACQLFKGWGLLGPRNELFDAAKYRVLADRFGSPADSWWRPEPTMPPTSWRQLNPESIRPGGPGGLSRSLGREEEEDEEEELEEGTIDVTDFLSMTQQDSHAPLRDSRGSSFEMTDDDSAIRALTQFPLPKNLLAKVIQIATSSSTAKNLMQFHTVGTKTKLSTLTLLWPCPMTFVAKGRRKAEAENKAAALACKKLKSLGLVDRNNEPLTHAMYNLASLRELGETQRRPCTIQVPEPILRKIETFLNHYPVESSWIAPELRLQSDDILPLGKDSGPLSDPITGKPYVPLLEAEEVRLSQSLLELWRRRGPVWQEAPQLPVDPHRDTILNAIEQHPVVVISGDTGCGKTTRIPQLLLERYVTEGRGARCNVIITQPRRISAVSVAQRVSHELGPSLRRNVGFQVRLESKPPSRGGALLFCTVGILLRKLQSNPSLEGVSHVIVDEVHERDVNTDFLLILLKGLQRLNPALRLVLMSATGDNERFSRYFGGCPVIKVPGFMYPVKEHYLEDILAKLGKHQYLHRHRHHESEDECALDLDLVTDLVLHIDARGEPGGILCFLPGWQEIKGVQQRLQEALGMHESKYLILPVHSNIPMMDQKAIFQQPPVGVRKIVLATNIAETSITINDIVHVVDSGLHKEERYDLKTKVSCLETVWVSRANVIQRRGRAGRCQSGFAYHLFPRSRLEKMVPFQVPEILRTPLENLVLQAKIHMPEKTAVEFLSKAVDSPNIKAVDEAVILLQEIGVLDQREYLTTLGQRLAHISTDPRLAKAIVLAAIFRCLHPLLVVVSCLTRDPFSSSLQNRAEVDKVKALLSHDSGSDHLAFVRAVAGWEEVLRWQDRSSRENYLEENLLYAPSLRFIHGLIKQFSENIYEAFLVGKPSDCTLASAQCNEYSEEEELVKGVLMAGLYPNLIQVRQGKVTRQGKFKPNSVTYRTKSGNILLHKSTINREATRLRSRWLTYFMAVKSNGSVFVRDSSQVHPLAVLLLTDGDVHIRDDGRRATISLSDSDLLRLEGDSRTVRLLKELRRALGRMVERSLRSELAALPPSVQEEHGQLLALLAELLRGPCGSFDVRKTADD
B7: PRPF6 (protein, UniProt O94906 1-941, looked up)
Pre-mRNA-processing factor 6: MNKKKKPFLGMPAPLGYVPGLGRGATGFTTRSDIGPARDANDPVDDRHAPPGKRTVGDQMKKNQAADDDDEDLNDTNYDEFNGYAGSLFSSGPYEKDDEEADAIYAALDKRMDERRKERREQREKEEIEKYRMERPKIQQQFSDLKRKLAEVTEEEWLSIPEVGDARNKRQRNPRYEKLTPVPDSFFAKHLQTGENHTSVDPRQTQFGGLNTPYPGGLNTPYPGGMTPGLMTPGTGELDMRKIGQARNTLMDMRLSQVSDSVSGQTVVDPKGYLTDLNSMIPTHGGDINDIKKARLLLKSVRETNPHHPPAWIASARLEEVTGKLQVARNLIMKGTEMCPKSEDVWLEAARLQPGDTAKAVVAQAVRHLPQSVRIYIRAAELETDIRAKKRVLRKALEHVPNSVRLWKAAVELEEPEDARIMLSRAVECCPTSVELWLALARLETYENARKVLNKARENIPTDRHIWITAAKLEEANGNTQMVEKIIDRAITSLRANGVEINREQWIQDAEECDRAGSVATCQAVMRAVIGIGIEEEDRKHTWMEDADSCVAHNALECARAIYAYALQVFPSKKSVWLRAAYFEKNHGTRESLEALLQRAVAHCPKAEVLWLMGAKSKWLAGDVPAARSILALAFQANPNSEEIWLAAVKLESENDEYERARRLLAKARSSAPTARVFMKSVKLEWVQDNIRAAQDLCEEALRHYEDFPKLWMMKGQIEEQKEMMEKAREAYNQGLKKCPHSTPLWLLLSRLEEKIGQLTRARAILEKSRLKNPKNPGLWLESVRLEYRAGLKNIANTLMAKALQECPNSGILWSEAIFLEARPQRRTKSVDALKKCEHDPHVLLAVAKLFWSQRKITKAREWFHRTVKIDSDLGDAWAFFYKFELQHGTEEQQEEVRKRCESAEPRHGELWCAVSKDIANWQKKIGDILRLVAGRIKNTF

Tested on: BAF complex subunits and histone proteins
Experiment: Mass spectrometry proteomics of purified HA-SS18 WT and HA-SS18-SSX1 complexes (Tables 5A-5E)
Parameters: species or system human
Details: for Total / Unique: HA-SS18SSX1_CHR_peptides; for Total: total peptides of the identified protein; for Unique: unique peptides of the identified protein; for Total (peptides) / Unique (peptides) / Total (total peptides) / Unique (unique peptides): HEK-293T
[1] = HA-SS18WT_NE_peptides: proteins co-purified with HA-SS18 WT from nuclear extract (NE)
[2] = HA-SS18SSX1 purification, NE (soluble nuclear extract) fraction, peptides per identified protein
[3] = HA-SS18WT_CHR_peptides: HA-SS18 WT purification from nuclease-treated solubilized chromatin (CHR), label = protein identified
[4] = HA-SS18WT_NE_peptides: HA-SS18 WT complexes purified from nuclear extract (NE), label = protein identified (Gene Symbol)
[5] = HA-SS18SSX1_NE_peptides (Table 5B), HA-SS18-SSX1 BAF complex purification from soluble nuclear extract
[6] = HA-SS18WT_CHR_peptides: protein identified in HA-SS18 WT BAF complex purification from nuclease-treated solubilized chromatin (CHR)

Molecule | Total | Unique | Total (peptides) [1] | Unique (peptides) [1] | Total (total peptides) [2] | Unique (unique peptides) [2] | Total (peptides) [3] | Unique (peptides) [3] | Total (peptides) [4] | Unique (peptides) [4] | Total (peptides) [5] | Unique (peptides) [5] | Total (total peptides) [6] | Unique (unique peptides) [6]
B1 | 4 | 4 | 2 | 2 |  |  |  |  |  |  |  |  |  | 
B2 | 4 | 4 |  |  | 11 | 9 | 7 | 6 | 11 | 9 |  |  |  | 
B3 | 4 | 4 |  |  |  |  |  |  |  |  |  |  |  | 
B4 | 4 | 4 |  |  |  |  |  |  |  |  |  |  |  | 
B5 | 4 | 4 |  |  |  |  | 4 | 4 |  |  |  |  |  | 
B6 | 4 | 4 | 1 | 1 |  |  | 3 | 3 |  |  | 1 | 1 |  | 
B7 | 4 | 4 |  |  | 3 | 3 |  |  | 3 | 3 |  |  | 1 | 1
